The list shows a part of the results. Shown are side measurements of this screen, not its main read-out; they come without a call. Compounds called inactive in the main read-out are mostly missing here. Potencies come from curve fits of mixed quality, noted in brackets.
Assay: qHTS Assay for Lipid Storage Modulators in Drosophila S3 Cells;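 on cell number change: cells counted by Cell Tracker Red CMTPX staining in the red channel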
Details: BODIPY lipid droplet fluorescence, 18-24 h; for cell number change: measured here: cell count max response, cells fed with added oleic acid
Method in brief: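 Drosophila S3 cells got compounds at several concentrations plus oleic acid (400 uM solution). Laser-scanning cytometry with 488 nm excitation read lipid droplets at 500-530 nm and cells at 575-640 nm. Percent activity was relative to 20 uM Triacsin C.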

[1] = measured here: lipid fluorescence (Fed channel) AC50, cells fed with added oleic acid
[2] = measured here: cell number channel AC50, cells fed with added oleic acid

SMILES | cell number change | AC50 [1] | AC50 [2]
COC(=O)c1c(C)[nH]c(C(=O)C(C)OC(=O)C2CC2)c1C (stereo not given) | -4.15% | 0.00461 µM [rising, full curve, poor fit] | 
Cc1cccc(NC(=O)c2ccc(S(=O)(=O)N3CCOCC3)cc2)n1 | -22% | 0.731 µM [rising, single point] | 
CN1CCC(NC(=O)c2cccc(Oc3ccccc3)c2)CC1 | 7.46% |  | 
CC(=O)c1ccc(NCC(=O)N2CCN(c3ccccc3)CC2)cc1 |  |  | 6.51 µM [falling, single point]
CCCn1nnnc1SCC(=O)NNC(=O)c1ccco1 | -9.33% | 0.116 µM [falling, full curve] | 
CN(c1ccc(OCC(=O)OCC(=O)NC2CCCC2)cc1)S(=O)(=O)c1ccc2ccccc2c1 | -40.3% | 29.1 µM [falling, single point] | 23.1 µM [falling, single point]
CCC(C)C(NC(=O)C1CCC(=O)N1C(=O)OCc1ccccc1)C(=O)NC(C(=O)N1CCCC1C(N)=O)C(C)CC (stereo not given) | -2.86% |  | 
COc1ccc(S(=O)(=O)N(C)CC(=O)N2CCCCCC2)cc1OC |  | 0.13 µM [falling, full curve, poor fit] | 
CC1CCCC(NC(=O)c2ccncc2)C1C (stereo not given) | 1.57% | 18.4 µM [falling, single point] | 
Oc1ccc2ccccc2c1C=NCc1ccccc1 | -22.6% | 29.1 µM [falling, single point] | 
CCN(CC)C1=NC=CC(c2ccccc2)=CC1C (stereo not given) | -35% | 16.4 µM [falling, partial curve, poor fit] | 0.058 µM [falling, full curve, poor fit]
COc1ccc(NC(=O)c2cc3ccc4c5ccccc5[nH]c4c3cc2O)cc1 | 15.6% | 29.1 µM [falling, single point] | 
O=C(NC(NC(=S)Nc1ccccc1C(=O)O)C(Cl)(Cl)Cl)c1ccccc1 (stereo not given) | -21.3% | 5.17 µM [falling, partial curve] | 
Cc1nc(NC(=O)c2ccc(OCC(C)C)cc2)sc1Cc1ccc2c(c1)OCO2 | 7.69% | 29.1 µM [rising, single point] | 
CN1CCN(S(=O)(=O)c2cccc(C(=O)Nc3sc4c(c3-c3nc5ccccc5[nH]3)CCCC4)c2)CC1 | -9.8% | 2.06 µM [rising, partial curve, poor fit] | 
CCSc1nnc2c(Cl)cc(Cl)cn12 | -13% |  | 
C=CCNC(=O)c1cccc(NS(=O)(=O)c2ccc(Cl)cc2)c1 | -13.6% | 0.651 µM [falling, full curve, poor fit] | 
O=C(O)/C=C/C(=O)Nc1ccc(Cc2ccc(NC(=O)/C=C/C(=O)O)cc2)cc1 | 0.845% | 6.51 µM [falling, single point] | 
O=C(NNC(=O)c1ccccc1O)c1ccc(Cl)c(S(=O)(=O)N2CCc3ccccc32)c1 | -15% | 29.1 µM [falling, single point] | 
C[C@H](NC(=O)N1CCn2c1nc1ccccc12)C(=O)NCC1CCCO1 (stereo not given in full) | -10.6% | 0.82 µM [rising, single point] | 

Compounds from the list above containing a COOH group:
SMILES | cell number change | AC50 [1] | AC50 [2]
O=C(NC(NC(=S)Nc1ccccc1C(=O)O)C(Cl)(Cl)Cl)c1ccccc1 (stereo not given) | -21.3% | 5.17 µM [falling, partial curve] | 
O=C(O)/C=C/C(=O)Nc1ccc(Cc2ccc(NC(=O)/C=C/C(=O)O)cc2)cc1 | 0.845% | 6.51 µM [falling, single point] | 

More entries follow:

SMILES | cell number change | AC50 [1] | AC50 [2]
CC1(C)Cc2c(cnn2-c2cccc(F)c2)C(NC(=O)c2ccc[n+]([O-])c2)C1 (stereo not given) | -16.5% | 0.103 µM [falling, full curve, poor fit] | 
COc1ccccc1NS(=O)(=O)c1cc(NC(=O)c2ccc3c(c2)OCCO3)ccc1C | -1.74% | 2.91 µM [rising, partial curve] | 2.91 µM [rising, single point]
O=C(CN1CC(=O)Oc2ccccc21)OCC(=O)c1ccccc1 | 12.6% | 0.731 µM [falling, full curve] | 
COc1ccc(N2CCN(Cc3cc(=O)oc4cc(C)c(Cl)cc34)CC2)cc1 | 19.7% | 6.51 µM [rising, single point] | 
COc1ccc(C2=NOC(C(=O)NCCCn3ccnc3)C2)cc1 (stereo not given) |  | 0.13 µM [rising, full curve, poor fit] | 5.8 µM [rising, single point]
N#CC1(NC(=O)COC(=O)c2ccccc2[N+](=O)[O-])CCCCC1 | 8.66% |  | 
O=C1/C(=C/c2cccs2)SC(=S)N1CCC(=O)N1CCCCC1CCO (stereo not given) | -22.4% | 29.1 µM [falling, single point] | 
O=C(CCCCCn1c(=S)[nH]c2cc3c(cc2c1=O)OCO3)N1CCN(Cc2ccccc2)CC1 |  |  | 0.146 µM [rising, full curve, poor fit]
CN=C1CC(C)(C)CC(=O)/C1=C(/O)CCCN1C(=O)c2ccccc2C1=O | 16.5% | 6.51 µM [falling, single point] | 
Cc1ccc(-c2c(C)c(-c3ccc(F)cc3)nc(N)c2C#N)o1 | -38.2% | 25.9 µM [falling, single point] | 16.4 µM [falling, partial curve]
CC(C)CNC(=O)c1cc(-c2ccc(Br)cc2)on1 | 28.9% | 7.31 µM [rising, partial curve] | 
Cc1ccccc1OCC(=O)NS(=O)(=O)c1ccc(Cl)cc1 | -12.1% | 18.4 µM [falling, partial curve] | 
CC(Sc1nnc(Cc2ccccc2)o1)C(=O)Nc1ccccc1[N+](=O)[O-] (stereo not given) | -23% | 0.00731 µM [falling, full curve, poor fit] | 
COc1ccc(N2C(=O)C(Cl)=C(N(CCO)Cc3ccccc3)C2=O)cc1 | 75.9% | 29.1 µM [rising, single point] | 29.1 µM [rising, single point]
O=C(Nc1ccccc1Oc1cccnc1)C1CCCN(Cc2ccc(F)cc2)C1 (stereo not given) | -16.4% | 11.6 µM [falling, single point] | 
C=CCn1cnc2c(c1=O)c1nc3ccccc3nc1n2Cc1ccccc1 | 34.1% |  | 0.366 µM [rising, full curve]
O=C1C(Cl)=C(N2CCOCC2)C(=O)N1c1ccccc1Cl | -2.4% |  | 
O=C(COC(=O)c1cccc(Oc2ccccc2)c1)NCc1ccco1 | -27.2% | 1.84 µM [falling, full curve] | 
COc1ccc(C(=O)NCCCCCC(=O)O)cc1OC |  | 1.84 µM [falling, partial curve] | 
COc1cc(/C=N/N2CCN(Cc3ccc(Cl)cc3)CC2)cc(Br)c1O | -19.3% |  | 

SMILES | cell number change | AC50 [1] | AC50 [2]
O=C(Nc1ccccc1)c1snc2c(=O)[nH]cnc12 | 12.7% | 14.6 µM [rising, partial curve, poor fit] | 
CCn1c(=O)c(=O)n(CC)c2cc(S(=O)(=O)Nc3ccc(C)cc3)ccc21 | 21.3% | 29.1 µM [rising, single point] | 
COc1ccc(/C=N/NC(=O)C[n+]2ccccc2)c(OC)c1OC | 17.2% | 5.17 µM [falling, single point] | 6.51 µM [falling, single point]
CCN(Cc1ccncc1)Cc1c(O)ccc2cc(Br)ccc12 | -8.25% |  | 6.51 µM [falling, single point]
O=C(Cn1c(=O)oc2cc(S(=O)(=O)N3CCCC3)ccc21)NC1CCCCC1 | 36.5% |  | 
Nc1c(N(Cc2ccccc2)C(=O)CCc2ccccc2)c(=O)[nH]c(=O)n1Cc1ccccc1 | 3.03% | 0.146 µM [rising, full curve, poor fit] | 0.13 µM [rising, full curve, poor fit]
O=C(Cn1nc(C(=O)O)c2ccccc2c1=O)Nc1cc(Cl)ccc1-n1cncn1 | 31.2% |  | 
Nc1ccc(Nc2nc(-c3ccncc3)cs2)cc1 | 11.3% | 0.116 µM [rising, full curve, poor fit] | 
O=C(NC(NC(=S)Nc1cccc(Cl)c1)C(Cl)(Cl)Cl)OCc1ccccc1 (stereo not given) | -45.7% | 6.51 µM [falling, single point] | 7.31 µM [falling, partial curve, poor fit]
COc1ccccc1NS(=O)(=O)c1ccc(C(=O)NCCCn2ccnc2)cc1 | 6.61% | 16.4 µM [rising, partial curve] | 
O=C(COc1coc(CN2CCc3ccccc3C2)cc1=O)Nc1cccc(F)c1 | 2.89% | 0.00461 µM [falling, full curve, poor fit] | 
COc1ccccc1NC(=O)COC(=O)c1ccccc1OCC(=O)Nc1ccc(SC(F)F)cc1 | 42.1% | 4.61 µM [rising, single point] | 4.61 µM [rising, partial curve]
O=C(c1ccccc1OC(F)F)N1CCN(S(=O)(=O)c2ccc3c(c2)OCCCO3)CC1 | -20.2% | 0.00461 µM [falling, full curve, poor fit] | 
COC(=O)C(F)(Sc1c(C)n(C)n(-c2ccccc2)c1=O)C(F)(F)F (stereo not given) | -20.4% | 29.1 µM [falling, single point] | 
O=C(CCC(=O)Nc1ccccc1)NNC(=O)c1ccco1 | -41.2% |  | 25.9 µM [falling, partial curve, poor fit]
O=C1C=C(c2cccc(Cl)c2)C[C@@H](c2ccc(Cl)cc2)C1 | 4.54% | 20.6 µM [rising, single point] | 
CCc1ccc(S(=O)(=O)Nc2nccs2)cc1 | 9.45% | 6.51 µM [rising, single point] | 
O=C(NCCCN1CCOCC1)c1ccc(NS(=O)(=O)c2ccccc2)cc1 | 2.89% |  | 
CN(C)CCCC(C)(O)C(C)(C)c1ccccc1 (stereo not given) | 1.58% | 32.6 µM [falling, single point] | 
CCOc1ccc(NC(=O)C(C)Sc2nccn2C)cc1 (stereo not given) | -14.9% |  | 

Compounds above that contain a nitro group on carbon, in the order listed:
SMILES | cell number change | AC50 [1] | AC50 [2]
N#CC1(NC(=O)COC(=O)c2ccccc2[N+](=O)[O-])CCCCC1 | 8.66% |  | 
CC(Sc1nnc(Cc2ccccc2)o1)C(=O)Nc1ccccc1[N+](=O)[O-] (stereo not given) | -23% | 0.00731 µM [falling, full curve, poor fit] | 

From PubChem BioAssay AID2685 (National Center for Advancing Translational Sciences (NCATS), 2010)
